Experimental data taken from the M2OR odorant receptor database.
The entries are a selection whose mix differs from that of the whole data set. The calls were merged from several studies; some rest on single wells. The list shows a part of the results. Some of the results follow.

How the values were obtained:
Details in all cases: stereoisomer not certain
OR5AN1 (Homo sapiens) = target: T1, OR5AN1 (Homo sapiens) (UniProt Q8NGI8)
T1 sequence (whole entry): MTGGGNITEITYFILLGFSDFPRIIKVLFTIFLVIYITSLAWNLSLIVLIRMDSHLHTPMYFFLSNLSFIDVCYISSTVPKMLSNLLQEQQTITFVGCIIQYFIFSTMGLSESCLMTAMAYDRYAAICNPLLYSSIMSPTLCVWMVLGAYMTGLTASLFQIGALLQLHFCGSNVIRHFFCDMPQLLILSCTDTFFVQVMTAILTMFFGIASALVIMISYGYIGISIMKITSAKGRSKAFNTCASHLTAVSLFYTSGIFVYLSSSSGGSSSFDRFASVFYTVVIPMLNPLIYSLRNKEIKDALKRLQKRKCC
Outline: (§1)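 Values were gathered from published papers (main text and supplementary material), with extra details requested from the original authors when needed, and checked for typos and inconsistencies. Each receptor–molecule pair is called responsive (active) if the original authors judged the measured signal statistically different from baseline, and non-responsive (inactive) otherwise. Assay methods varied by source, often transient mammalian cell-line luciferase assays. Recorded details include cell line, G-protein, co-transfected protein and tags.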

OR5AR1 (Homo sapiens) = target: T2, OR5AR1 (Homo sapiens) (UniProt Q8NGP9)
T2 sequence (whole entry): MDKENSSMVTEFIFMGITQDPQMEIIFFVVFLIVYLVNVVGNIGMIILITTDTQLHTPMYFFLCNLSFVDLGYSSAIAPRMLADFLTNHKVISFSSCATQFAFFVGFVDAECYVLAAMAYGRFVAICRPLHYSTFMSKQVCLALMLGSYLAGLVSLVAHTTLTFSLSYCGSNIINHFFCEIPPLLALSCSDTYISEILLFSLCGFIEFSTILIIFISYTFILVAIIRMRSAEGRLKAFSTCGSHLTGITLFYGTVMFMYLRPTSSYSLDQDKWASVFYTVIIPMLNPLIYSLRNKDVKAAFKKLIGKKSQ
Outline: as §1

OR5AS1 (Homo sapiens) = target: T3, OR5AS1 (Homo sapiens) (UniProt Q8N127)
T3 sequence (whole entry): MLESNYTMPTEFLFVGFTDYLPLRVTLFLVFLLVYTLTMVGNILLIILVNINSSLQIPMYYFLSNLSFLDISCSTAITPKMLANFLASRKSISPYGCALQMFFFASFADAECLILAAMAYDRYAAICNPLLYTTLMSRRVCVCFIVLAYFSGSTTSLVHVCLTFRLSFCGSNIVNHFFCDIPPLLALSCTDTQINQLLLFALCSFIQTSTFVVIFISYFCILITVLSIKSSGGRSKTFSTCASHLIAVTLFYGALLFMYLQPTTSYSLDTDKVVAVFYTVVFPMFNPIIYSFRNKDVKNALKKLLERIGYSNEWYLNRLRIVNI
Outline: as §1

OR5AU1 (Homo sapiens) = target: T4, OR5AU1 (Homo sapiens) (UniProt Q8NGC0)
T4 sequence (whole entry): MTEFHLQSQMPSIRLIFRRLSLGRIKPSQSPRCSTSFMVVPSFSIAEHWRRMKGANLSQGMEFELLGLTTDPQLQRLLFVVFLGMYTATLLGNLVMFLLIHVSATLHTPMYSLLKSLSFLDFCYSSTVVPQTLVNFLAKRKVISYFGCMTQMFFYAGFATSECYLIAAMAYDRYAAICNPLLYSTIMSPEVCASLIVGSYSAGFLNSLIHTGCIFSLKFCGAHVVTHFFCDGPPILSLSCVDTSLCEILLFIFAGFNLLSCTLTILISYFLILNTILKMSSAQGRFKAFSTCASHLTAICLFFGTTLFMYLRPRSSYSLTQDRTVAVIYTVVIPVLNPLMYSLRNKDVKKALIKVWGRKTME
Outline: as §1

OR5B17 (Homo sapiens) = target: T5, OR5B17 (Homo sapiens) (UniProt Q8NGF7)
T5 sequence (whole entry): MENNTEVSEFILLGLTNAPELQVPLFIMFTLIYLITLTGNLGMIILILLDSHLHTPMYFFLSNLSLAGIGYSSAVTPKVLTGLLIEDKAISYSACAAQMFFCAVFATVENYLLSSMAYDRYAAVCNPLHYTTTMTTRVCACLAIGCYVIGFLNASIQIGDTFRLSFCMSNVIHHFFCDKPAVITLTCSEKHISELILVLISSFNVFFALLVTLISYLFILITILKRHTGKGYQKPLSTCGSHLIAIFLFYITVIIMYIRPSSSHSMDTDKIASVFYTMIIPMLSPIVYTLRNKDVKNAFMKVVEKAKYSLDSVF
Outline: as §1

OR5B2 = system: T6, OR5B2
T6 sequence (whole entry): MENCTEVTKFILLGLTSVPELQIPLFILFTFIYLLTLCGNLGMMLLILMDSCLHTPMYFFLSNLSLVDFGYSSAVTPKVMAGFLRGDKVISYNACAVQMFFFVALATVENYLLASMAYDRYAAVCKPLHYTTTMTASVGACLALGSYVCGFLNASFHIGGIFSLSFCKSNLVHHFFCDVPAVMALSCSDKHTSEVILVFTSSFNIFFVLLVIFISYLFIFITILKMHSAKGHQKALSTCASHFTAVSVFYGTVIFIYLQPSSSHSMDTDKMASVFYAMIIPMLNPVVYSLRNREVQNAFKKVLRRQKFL
Outline: as §1

OR5B3 (Homo sapiens) = target: T7, OR5B3 (Homo sapiens) (UniProt Q8NH48)
T7 sequence (whole entry): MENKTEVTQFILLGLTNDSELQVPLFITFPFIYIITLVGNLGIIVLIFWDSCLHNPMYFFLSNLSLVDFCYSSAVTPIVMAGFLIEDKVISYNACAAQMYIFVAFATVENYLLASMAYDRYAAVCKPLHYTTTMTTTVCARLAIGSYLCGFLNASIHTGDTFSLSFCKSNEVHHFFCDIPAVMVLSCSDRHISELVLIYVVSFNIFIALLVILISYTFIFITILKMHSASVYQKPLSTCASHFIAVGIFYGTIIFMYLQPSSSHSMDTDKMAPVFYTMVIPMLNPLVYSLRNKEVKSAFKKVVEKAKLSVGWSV
Outline: as §1

OR5BC = system: T8, OR5BC
T8 sequence (whole entry): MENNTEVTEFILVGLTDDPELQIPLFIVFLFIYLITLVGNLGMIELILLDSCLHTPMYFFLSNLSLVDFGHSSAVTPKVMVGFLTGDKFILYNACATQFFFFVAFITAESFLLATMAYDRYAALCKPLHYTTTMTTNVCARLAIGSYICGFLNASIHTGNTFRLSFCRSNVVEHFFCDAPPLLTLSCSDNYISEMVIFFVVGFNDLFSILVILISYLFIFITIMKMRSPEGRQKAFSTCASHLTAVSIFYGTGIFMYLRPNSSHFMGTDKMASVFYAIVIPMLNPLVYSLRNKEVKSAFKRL
Outline: as §1

OR5BL = system: T9, OR5BL
T9 sequence (whole entry): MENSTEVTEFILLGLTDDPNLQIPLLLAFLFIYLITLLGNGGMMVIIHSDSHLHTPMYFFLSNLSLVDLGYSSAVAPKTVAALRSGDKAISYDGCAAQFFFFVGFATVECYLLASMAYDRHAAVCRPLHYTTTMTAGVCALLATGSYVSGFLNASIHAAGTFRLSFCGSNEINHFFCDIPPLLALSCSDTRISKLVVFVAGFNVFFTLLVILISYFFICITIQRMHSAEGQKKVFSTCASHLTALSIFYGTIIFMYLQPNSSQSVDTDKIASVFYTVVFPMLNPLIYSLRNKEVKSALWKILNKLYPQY
Outline: as §1

OR5C1 (Homo sapiens) = target: T10, OR5C1 (Homo sapiens) (UniProt Q8NGR4)
T10 sequence (whole entry): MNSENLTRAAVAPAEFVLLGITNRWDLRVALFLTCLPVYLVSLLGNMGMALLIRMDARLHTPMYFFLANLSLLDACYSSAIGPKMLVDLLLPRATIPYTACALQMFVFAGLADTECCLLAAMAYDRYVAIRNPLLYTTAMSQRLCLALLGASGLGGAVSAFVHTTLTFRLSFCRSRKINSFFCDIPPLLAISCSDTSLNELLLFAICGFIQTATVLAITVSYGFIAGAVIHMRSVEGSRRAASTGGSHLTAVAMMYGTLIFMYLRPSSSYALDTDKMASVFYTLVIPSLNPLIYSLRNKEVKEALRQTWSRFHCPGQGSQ
Outline: as §1

Measured: odorant receptor agonist call

CS
inactive: all assays above
